Measurements as given in patent US20250320246A1, “3-AZASTEROID COMPOUNDS FOR THE TREATMENT OF DISEASES RELATED TO MITROCHONDRIAL FUNCTION” (NZP UK LIMITED, priority 2022, published 2025).
The name of at least one read-out is uncertain.

Key:
[1] = system: sporadic PD patient fibroblasts; assay: Mitochondrial membrane potential (MMP, TMRM) in sporadic PD patient fibroblasts; assay type: cell-based, human; conditions: max response with highest dose of compound (300 nM); 3 sporadic PD patient fibroblasts; 24 h
Method: (§1) Primary fibroblast cells were cultured continuously in Glucose based medium (high glucose (4500 mg/L) Dulbecco's Modified Eagle's medium (DMEM; Sigma-Aldrich) supplemented with 10% fetal bovine serum (Sigma-Aldrich), 100 IU/mL penicillin, 100 μg/mL streptomycin (Lonza), 1 mM sodium pyruvate (Sigma-Aldrich) and 50 μg/mL uridine (Sigma-Aldrich)). Unless otherwise stated, 24 hours prior to analysis, the Glucose based medium was exchanged for Galactose based medium (glucose-free DMEM (Gibco) with the same supplementation and in addition, 5 mM galactose (Sigma-Aldrich)). All cells were assessed between passage 6-10.
Fibroblasts were cultured and plated into a greiner black 384 μClear® plate at a concentration of 1000 cells per well in 50 μl of media volume. The plates are left overnight in an incubator to allow the fibroblasts to adhere to the plate surface. The following morning the Glucose based medium is replaced with 25 μl of Galactose based medium. The plates were then dosed with the compounds using an ECHO® 550 liquid handling system. The wells were dosed to provide an 8-point concentration range of 0.06 nM-300 nM of compound. After dosing the wells are topped up with a further 25 μl of Galactose based medium and then left in an incubator for 24 hours. […]

[2] = system: sporadic PD patient fibroblasts; assay: Cellular ATP levels in sporadic PD patient fibroblasts, full ATP assay; assay type: cell-based, human; conditions: max response with highest dose of compound (300 nM); 3 sporadic PD patient fibroblasts; 24 h
Method: as §1
The ATP protocol is generally as described in Mortiboys et al 2008. […] The wells are filled with 25 μl of Sterile PBS followed by 12.5 μl of Lysis solution from the ATPlite™ Luminescence ATP detection assay system (Perkin Elmer), including 16 cell free wells to use as blank controls. […] The plate is then placed in darkness for 10 minutes prior to reading. Using a PHERAStar® plate reader, luminescence intensity is recorded. […]
Immediately following The ATP assay DNA content is assessed with the CyQUANT® NF Cell Proliferation Assay Kit (ThermoFisher). […] Plate left in incubator for 1 hour then read on a PHERAStar© Plate reader with excitation at 497 nm and emission at 520 nm.
ATP Quantification for each well is determined using the following formula: […]

C[C@H](CCC(=O)O)[C@H]1CC[C@H]2[C@@H]3[C@@H](O)C[C@@H]4CN(C)CC[C@]4(C)[C@H]3CC[C@]12C.Cl [Compound 33, N-Methyl-3-aza-7β-hydroxy-5β-cholan-24-oic acid hydrochloride]
MMP % of vehicle, top % [1]: 92.2%
ATP % of vehicle, top % [2]: 103.1%
